From US7208504B2, “Bicyclic inhibitors of hormone sensitive lipase” (Sanofi-Aventis Deutschland GmbH, priority 2002, dated 2007)
Some entries share one result that the patent states for a list of compounds. Some ranges recur; such a range may be that of the whole group of compounds.

Target: T1, hormone-sensitive lipase, HSL (Rattus norvegicus, UniProt P15304)
T1 construct: Isolated rat fat cells are obtained from epididymal adipose tissue from untreated male rats; from tissue; host or cells: fat cells from epididymal adipose tissue of male Wistar rats
T1 sequence (P15304 301-1068 limits assumed): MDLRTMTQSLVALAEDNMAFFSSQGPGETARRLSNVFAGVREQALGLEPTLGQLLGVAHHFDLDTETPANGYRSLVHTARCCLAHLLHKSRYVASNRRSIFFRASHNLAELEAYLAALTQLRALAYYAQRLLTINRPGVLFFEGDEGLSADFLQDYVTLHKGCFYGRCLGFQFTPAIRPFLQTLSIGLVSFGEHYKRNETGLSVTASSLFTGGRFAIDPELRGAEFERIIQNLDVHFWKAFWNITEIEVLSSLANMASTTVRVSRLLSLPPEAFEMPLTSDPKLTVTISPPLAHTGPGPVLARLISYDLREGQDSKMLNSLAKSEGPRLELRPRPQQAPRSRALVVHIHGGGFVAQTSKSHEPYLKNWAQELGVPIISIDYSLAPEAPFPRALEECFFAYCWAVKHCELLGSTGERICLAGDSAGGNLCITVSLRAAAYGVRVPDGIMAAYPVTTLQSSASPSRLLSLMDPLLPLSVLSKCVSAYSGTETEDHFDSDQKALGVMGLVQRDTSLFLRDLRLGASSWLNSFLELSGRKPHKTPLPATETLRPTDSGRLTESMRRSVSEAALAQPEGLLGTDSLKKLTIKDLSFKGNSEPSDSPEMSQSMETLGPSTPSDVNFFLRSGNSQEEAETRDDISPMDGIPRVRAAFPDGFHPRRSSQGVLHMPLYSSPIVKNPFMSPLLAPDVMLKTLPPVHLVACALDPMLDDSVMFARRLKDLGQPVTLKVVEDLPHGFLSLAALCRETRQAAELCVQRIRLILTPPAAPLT
Experiment: HSL enzyme assay (NAG substrate / [3H]trioleoylglycerol) with partially purified HSL
Assay type: biochemical
Settings: partially purified HSL from rat fat cells; IC50 from inhibition plot with min. 10 concentrations; read-out: inhibition of the HSL enzymatic activity, IC50

| Compound | IC50 |
| --- | --- |
| COC(=O)c1ccc2nnn(C(=O)N3CCC(C)CC3)c2c1 [Example 1, Methyl 3-(4-methylpiperidine-1-carbonyl)-3H-benzotriazole-5-carboxylate] | 40 to 5000 nM |
| O=C(N1CCC2(CCCC2)CC1)n1nnc2ccccc21 [Example 2, (8-Aza-spiro[4,5]dec-8-yl)-benzotriazol-1-ylmethanone] | 40 to 5000 nM |
| COc1cc2c(cc1OC)CN(C(=O)n1nnc3ccccc31)CC2 [Example 3, Benzotriazol-1-yl-(6,7-dimethoxy-3,4-dihydro-1H-isoquinolin-2-yl)methanone] | 40 to 5000 nM |
| O=C(N1CCC(C(F)(F)F)CC1)n1nnc2cc(Oc3ccccc3)ccc21 [Example 4, (5-Phenoxybenzotriazol-1-yl)-(4-trifluoromethylpiperidin-1-yl)methanone] | 40 to 5000 nM |
| CC1CCN(C(=O)n2nnc3cc(F)c(Cl)cc32)CC1 [Example 5, (6-Chloro-5-fluorobenzotriazol-1-yl)-(4-methylpiperidin-1-yl)methanone] | 40 to 5000 nM |
| O=C(N1CCC(Br)CC1)n1nnc2ccccc21 [Example 6, Benzotriazol-1-yl-(4-bromopiperidin-1-yl)methanone] | 40 to 5000 nM |
| O=C(N1CCC(C(F)(F)F)CC1)n1nnc2ccccc21 [Example 7, Benzotriazol-1-yl-(4-trifluoromethylpiperidin-1-yl)methanone] | 40 to 5000 nM |
| O=C(N1Cc2ccccc2C1)n1nnc2ccccc21 [Example 8, Benzotriazol-1-yl-(1,3-dihydroisoindol-2-yl)methanone] | 40 to 5000 nM |
| COC(=O)c1ccc2c(c1)nnn2C(=O)N1CC=CCC1 [Example 9, Methyl-1-(3,6-dihydro-2H-pyridine-1-carbonyl)-1H-benzotriazole-5-carboxylate] | 40 to 5000 nM |
| O=C(N1CC=CCC1)n1nnc2cc([N+](=O)[O-])ccc21 [Example 10, (3,6-Dihydro-2H-pyridin-1-yl)-(5-nitrobenzotriazol-1-yl)methanone] | 40 to 5000 nM |
| O=C(N1CCc2ccccc2C1)n1nnc2cc([N+](=O)[O-])ccc21 [Example 11, (3,4-Dihydro-1H-isoquinolin-2-yl)-(5-nitrobenzotriazol-1-yl)methanone] | 40 to 5000 nM |
| O=C(N1CC=CCC1)n1nnc2cc(Br)ccc21 [Example 12, (5-Bromobenzotriazol-1-yl)-(3,6-dihydro-2H-pyridin-1-yl)methanone] | 40 to 5000 nM |
| O=C(N1CCCC(C(F)(F)F)C1)n1nnc2cc(Br)ccc21 (stereo not drawn) [Example 13, (5-Bromobenzotriazol-1-yl)-(3-trifluoromethylpiperidin-1-yl)methanone] | 40 to 5000 nM |
| O=C(N1CCc2ccccc2C1)n1nnc2cc(Br)ccc21 [Example 14, (5-Bromobenzotriazol-1-yl)-(3,4-dihydro-1H-isoquinolin-2-yl)methanone] | 40 to 5000 nM |
| O=C(N1CC2CCCCC2C1)n1nnc2ccccc21 (stereo not drawn) [Example 15, Benzotriazol-1-yl-(octahydroisoindol-2-yl)methanone] | 40 to 5000 nM |
| Nc1ccc2c(c1)CN(C(=O)n1nnc3ccccc31)CC2 [Example 16, (7-Amino-3,4-dihydro-1H-isoquinolin-2-yl)benzotriazol-1-ylmethanone] | 40 to 5000 nM |
| COc1ccc2c(c1)nnn2C(=O)N1CCc2ccccc2C1 [Example 17, (3,4-Dihydro-1H-isoquinolin-2-yl)-(5-methoxybenzotriazol-1-yl)methanone] | 40 to 5000 nM |
| COc1ccc2c(c1)nnn2C(=O)N1CCCC(C)C1 (stereo not drawn) [Example 18, (5-Methoxybenzotriazol-1-yl)-(3-methylpiperidin-1-yl)methanone] | 40 to 5000 nM |
| CC1CCN(C(=O)n2nnc3ccc(N)cc32)CC1 [Example 19, (6-Aminobenzotriazol-1-yl)-(4-methylpiperidin-1-yl)methanone] | 40 to 5000 nM |
| CC1CCN(C(=O)n2nnc3cc(Cl)ccc32)CC1 [Example 20, (5-Chlorobenzotriazol-1-yl)-(4-methylpiperidin-1-yl)methanone] | 40 to 5000 nM |
| O=C(N1CCC2(CC1)N=N2)n1nnc2ccccc21 [Example 21, Benzotriazol-1-yl-(1,2,6-triaza-spiro[2.5]oct-1-en-6-yl)methanone] | 40 to 5000 nM |
| CCC1CCN(C(=O)n2nnc3ccccc32)CC1 [Example 22, Benzotriazol-1-yl-(4-ethylpiperidin-1-yl)methanone] | 40 to 5000 nM |
| CC1CCN(C(=O)n2nnc3ccc([N+](=O)[O-])cc32)CC1 [Example 23, (4-Methylpiperidin-1-yl)-(6-nitrobenzotriazol-1-yl)methanone] | 40 to 5000 nM |

| Compound | IC50 |
| --- | --- |
| CCOC(=O)C1CCN(C(=O)n2nnc3ccccc32)CC1 [Example 24, Ethyl 1-(benzotriazole-1-carbonyl)piperidine-4-carboxylate] | 40 to 5000 nM |
| CC1CCN(C(=O)n2nnc3ccccc32)CC1 [Example 25, Benzotriazol-1-yl-(4-methylpiperidin-1-yl)methanone] | 40 to 5000 nM |
| CC1CCN(C(=O)n2nnc3ccc(C#N)cc32)CC1 [Example 26, 3-(4-Methylpiperidine-1-carbonyl)-3H-benzotriazole-5-carbonitrile] | 40 to 5000 nM |
| O=C(N1CCCc2ccccc21)n1nnc2ccccc21 [Example 28, Benzotriazol-1-yl-(3,4-dihydro-2H-quinolin-1-yl)methanone] | 40 to 5000 nM |
| Cc1ccc2nnn(C(=O)N3CCCC3)c2c1 [Example 29, (6-Methylbenzotriazol-1-yl)-pyrrolidin-1-ylmethanone] | 40 to 5000 nM |
| CC1CCCN(C(=O)n2nnc3ccccc32)C1 (stereo not drawn) [Example 30, Benzotriazol-1-yl-(3-methylpiperidin-1-yl)methanone] | 40 to 5000 nM |
| CC1CCN(C(=O)n2nnc3ccccc32)CC1C (stereo not drawn) [Example 31, Benzotriazol-1-yl-(3,4-dimethylpiperidin-1-yl)methanone] | 40 to 5000 nM |
| CC1CCN(C(=O)n2nnc3cc(C(=O)c4ccccc4)ccc32)CC1 [Example 32, [1-(4-Methylpiperidine-1-carbonyl)-1H-benzotriazol-5-yl]phenylmethanone] | 40 to 5000 nM |
| CC1CCN(C(=O)n2nnc3cc(C(F)(F)F)ccc32)CC1 [Example 33, (4-Methylpiperidin-1-yl)-(5-trifluoromethylbenzotriazol-1-yl)methanone] | 40 to 5000 nM |
| CC1CCN(C(=O)n2nnc3ccc(Br)cc32)CC1 [Example 34, (6-Bromobenzotriazol-1-yl)-(4-methylpiperidin-1-yl)methanone] | 40 to 5000 nM |
| CC(C)(C)C1CCN(C(=O)n2nnc3ccccc32)CC1 [Example 35, Benzotriazol-1-yl-(4-tert-butylpiperidin-1-yl)methanone] | 40 to 5000 nM |
| CC1CCN(C(=O)n2nnc3cc(C(O)c4ccccc4)ccc32)CC1 (stereo not drawn) [Example 36, [5-(Hydroxyphenylmethyl)benzotriazol-1-yl]-(4-methylpiperidin-1-yl)methanone] | 40 to 5000 nM |
| CC1CCN(C(=O)n2nnc3cc(Oc4ccccc4)ccc32)CC1 [Example 37, (4-Methylpiperidin-1-yl)-(5-phenoxybenzotriazol-1-yl)methanone] | 40 to 5000 nM |
| CC1CCN(C(=O)n2nnc3cc(SC4CCCCC4)ccc32)CC1 [Example 38, (5-Cyclohexylsulfanylbenzotriazol-1-yl)-(4-methylpiperidin-1-yl)methanone] | 40 to 5000 nM |
| CC(C)C1CCN(C(=O)n2nnc3ccccc32)CC1 [Example 39, Benzotriazol-1-yl-(4-isopropylpiperidin-1-yl)methanone] | 40 to 5000 nM |
| CC1CCN(C(=O)n2nnc3ccc(Cl)cc32)CC1 [Example 40, (6-Chlorobenzotriazol-1-yl)-(4-methylpiperidin-1-yl)methanone] | 40 to 5000 nM |
| COc1ccc2c(c1)CCN(C(=O)n1nnc3ccccc31)C2 [Example 41, Benzotriazol-1-yl-(6-methoxy-3,4-dihydro-1H-isoquinolin-2-yl)methanone] | 40 to 5000 nM |
| O=C(N1CCC(Cc2ccccc2)CC1)n1nnc2ccccc21 [Example 42, Benzotriazol-1-yl-(4-benzylpiperidin-1-yl)methanone] | 40 to 5000 nM |
| CC1CCCN(C(=O)n2nnc3cc(Br)ccc32)C1 (stereo not drawn) [Example 43, (5-Bromobenzotriazol-1-yl)-(3-methylpiperidin-1-yl)methanone] | 40 to 5000 nM |
| N#Cc1ccc2c(c1)nnn2C(=O)N1CCc2ccccc2C1 [Example 44, 1-(3,4-Dihydro-1H-isoquinoline-2-carbonyl)-1H-benzotriazole-5-carbonitrile] | 40 to 5000 nM |
| O=C(N1CCc2ccccc2C1)n1nnc2c(Cl)cc(C(F)(F)F)cc21 [Example 45, (4-Chloro-6-trifluoromethylbenzotriazol-1-yl)-(3,4-dihydro-1H-isoquinolin-2-yl)methanone] | 40 to 5000 nM |
| N#Cc1ccc2c(c1)nnn2C(=O)N1CCCc2ccccc21 [Example 46, 1-(3,4-Dihydro-2H-quinolin-1-carbonyl)-1H-benzotriazole-5-carbonitrile] | 40 to 5000 nM |
